Experimental data taken from the supplement of paper PMC10849652.
The other results are listed elsewhere or left out.

By UniProt entry, the sequences of proteins in these tests, tags left out. Where a name states a change or a piece, a line headed by the entry shows the natural chain unless it says otherwise.
UniProt O14678: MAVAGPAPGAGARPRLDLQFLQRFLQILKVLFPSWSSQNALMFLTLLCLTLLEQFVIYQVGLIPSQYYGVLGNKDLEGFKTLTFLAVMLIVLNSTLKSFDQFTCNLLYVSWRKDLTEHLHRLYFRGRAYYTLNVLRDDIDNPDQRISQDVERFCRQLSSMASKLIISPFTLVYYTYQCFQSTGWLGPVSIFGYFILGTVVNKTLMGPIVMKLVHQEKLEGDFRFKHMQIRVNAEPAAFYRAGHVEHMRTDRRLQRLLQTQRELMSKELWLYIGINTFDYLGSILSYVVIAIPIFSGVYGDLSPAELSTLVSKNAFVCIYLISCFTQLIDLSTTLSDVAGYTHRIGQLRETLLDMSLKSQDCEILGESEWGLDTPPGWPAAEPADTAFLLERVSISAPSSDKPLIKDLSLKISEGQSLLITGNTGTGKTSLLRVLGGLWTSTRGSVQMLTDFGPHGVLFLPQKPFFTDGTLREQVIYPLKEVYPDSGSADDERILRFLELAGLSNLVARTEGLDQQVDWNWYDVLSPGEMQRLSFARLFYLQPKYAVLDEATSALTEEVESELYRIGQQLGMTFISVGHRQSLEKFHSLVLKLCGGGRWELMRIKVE
UniProt Q8TDG2: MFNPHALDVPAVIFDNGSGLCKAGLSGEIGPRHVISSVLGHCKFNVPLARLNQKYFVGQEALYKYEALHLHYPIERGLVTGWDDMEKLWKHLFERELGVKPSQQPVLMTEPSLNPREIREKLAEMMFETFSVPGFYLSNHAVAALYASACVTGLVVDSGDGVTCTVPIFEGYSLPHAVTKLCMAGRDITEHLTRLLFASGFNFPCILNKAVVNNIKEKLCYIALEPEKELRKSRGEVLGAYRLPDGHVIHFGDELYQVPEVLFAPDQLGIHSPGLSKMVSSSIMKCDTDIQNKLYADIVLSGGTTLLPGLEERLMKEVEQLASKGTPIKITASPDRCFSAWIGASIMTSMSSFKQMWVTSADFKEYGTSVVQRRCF
UniProt Q9BTE6: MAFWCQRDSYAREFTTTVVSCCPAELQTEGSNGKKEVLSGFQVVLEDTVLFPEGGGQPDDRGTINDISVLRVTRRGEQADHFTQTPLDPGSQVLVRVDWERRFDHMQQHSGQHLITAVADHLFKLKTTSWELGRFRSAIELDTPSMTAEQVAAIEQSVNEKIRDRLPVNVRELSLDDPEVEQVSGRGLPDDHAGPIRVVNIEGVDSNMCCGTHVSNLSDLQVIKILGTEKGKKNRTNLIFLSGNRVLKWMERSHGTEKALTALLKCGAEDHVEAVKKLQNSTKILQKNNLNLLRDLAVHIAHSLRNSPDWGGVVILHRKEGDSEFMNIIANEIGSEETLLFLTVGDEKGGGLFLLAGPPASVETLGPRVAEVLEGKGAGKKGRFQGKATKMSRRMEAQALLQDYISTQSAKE
UniProt Q96CM8: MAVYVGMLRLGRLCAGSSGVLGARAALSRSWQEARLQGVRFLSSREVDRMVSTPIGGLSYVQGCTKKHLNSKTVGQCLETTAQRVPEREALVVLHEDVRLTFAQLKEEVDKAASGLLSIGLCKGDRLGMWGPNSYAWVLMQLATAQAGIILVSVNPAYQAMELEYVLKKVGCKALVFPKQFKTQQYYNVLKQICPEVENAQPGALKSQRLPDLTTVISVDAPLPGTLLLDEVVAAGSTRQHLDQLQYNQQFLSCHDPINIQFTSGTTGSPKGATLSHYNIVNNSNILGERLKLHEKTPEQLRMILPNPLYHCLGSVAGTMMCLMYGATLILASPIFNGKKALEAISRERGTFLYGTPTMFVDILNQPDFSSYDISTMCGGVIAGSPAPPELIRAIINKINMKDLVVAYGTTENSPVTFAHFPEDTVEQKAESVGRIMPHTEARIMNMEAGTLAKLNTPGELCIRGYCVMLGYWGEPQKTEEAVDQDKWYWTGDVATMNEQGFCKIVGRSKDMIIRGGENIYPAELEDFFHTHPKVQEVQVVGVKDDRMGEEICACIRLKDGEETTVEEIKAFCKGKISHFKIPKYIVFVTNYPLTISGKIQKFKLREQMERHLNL
UniProt P42684, whole entry, looked up: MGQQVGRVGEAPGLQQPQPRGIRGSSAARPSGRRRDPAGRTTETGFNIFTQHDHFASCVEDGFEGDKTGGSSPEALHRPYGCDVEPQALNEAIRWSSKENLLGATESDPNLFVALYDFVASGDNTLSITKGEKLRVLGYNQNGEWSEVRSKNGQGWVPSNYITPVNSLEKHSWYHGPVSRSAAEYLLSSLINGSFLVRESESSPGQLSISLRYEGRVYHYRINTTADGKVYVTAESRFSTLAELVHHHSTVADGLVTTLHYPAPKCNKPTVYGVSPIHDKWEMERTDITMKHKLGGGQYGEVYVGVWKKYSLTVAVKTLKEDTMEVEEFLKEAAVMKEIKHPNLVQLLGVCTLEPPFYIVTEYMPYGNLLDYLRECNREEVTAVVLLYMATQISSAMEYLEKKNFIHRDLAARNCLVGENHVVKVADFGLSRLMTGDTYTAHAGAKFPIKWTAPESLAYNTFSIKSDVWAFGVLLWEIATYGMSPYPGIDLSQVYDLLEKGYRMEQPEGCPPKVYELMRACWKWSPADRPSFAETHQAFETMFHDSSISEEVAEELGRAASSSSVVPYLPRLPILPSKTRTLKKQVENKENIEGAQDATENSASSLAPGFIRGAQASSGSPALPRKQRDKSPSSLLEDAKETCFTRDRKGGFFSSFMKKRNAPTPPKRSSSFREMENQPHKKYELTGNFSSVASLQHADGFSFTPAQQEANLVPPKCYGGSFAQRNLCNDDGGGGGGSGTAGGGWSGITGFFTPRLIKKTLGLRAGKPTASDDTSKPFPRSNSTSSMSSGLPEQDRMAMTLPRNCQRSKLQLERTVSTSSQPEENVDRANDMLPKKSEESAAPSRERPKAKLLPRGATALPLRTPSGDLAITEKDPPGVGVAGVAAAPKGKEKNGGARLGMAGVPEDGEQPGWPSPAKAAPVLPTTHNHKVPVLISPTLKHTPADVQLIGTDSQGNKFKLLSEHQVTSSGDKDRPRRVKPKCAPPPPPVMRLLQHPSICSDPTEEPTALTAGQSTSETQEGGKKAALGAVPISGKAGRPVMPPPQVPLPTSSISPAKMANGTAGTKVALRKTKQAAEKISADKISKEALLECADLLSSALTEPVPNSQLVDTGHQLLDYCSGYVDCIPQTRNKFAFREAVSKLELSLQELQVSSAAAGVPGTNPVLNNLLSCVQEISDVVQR
UniProt Q8WU67: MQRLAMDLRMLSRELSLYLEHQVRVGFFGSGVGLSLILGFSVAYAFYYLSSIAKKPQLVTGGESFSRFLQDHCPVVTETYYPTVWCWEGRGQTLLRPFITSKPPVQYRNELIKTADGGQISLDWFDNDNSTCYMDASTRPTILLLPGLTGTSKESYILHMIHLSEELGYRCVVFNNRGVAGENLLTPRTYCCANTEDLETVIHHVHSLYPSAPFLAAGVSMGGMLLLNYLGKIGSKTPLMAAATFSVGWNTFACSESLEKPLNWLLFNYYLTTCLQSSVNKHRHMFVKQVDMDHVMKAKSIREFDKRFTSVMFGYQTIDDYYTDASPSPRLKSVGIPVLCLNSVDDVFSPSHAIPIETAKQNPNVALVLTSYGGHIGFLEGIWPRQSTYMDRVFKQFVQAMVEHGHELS
UniProt O95342, whole entry, looked up: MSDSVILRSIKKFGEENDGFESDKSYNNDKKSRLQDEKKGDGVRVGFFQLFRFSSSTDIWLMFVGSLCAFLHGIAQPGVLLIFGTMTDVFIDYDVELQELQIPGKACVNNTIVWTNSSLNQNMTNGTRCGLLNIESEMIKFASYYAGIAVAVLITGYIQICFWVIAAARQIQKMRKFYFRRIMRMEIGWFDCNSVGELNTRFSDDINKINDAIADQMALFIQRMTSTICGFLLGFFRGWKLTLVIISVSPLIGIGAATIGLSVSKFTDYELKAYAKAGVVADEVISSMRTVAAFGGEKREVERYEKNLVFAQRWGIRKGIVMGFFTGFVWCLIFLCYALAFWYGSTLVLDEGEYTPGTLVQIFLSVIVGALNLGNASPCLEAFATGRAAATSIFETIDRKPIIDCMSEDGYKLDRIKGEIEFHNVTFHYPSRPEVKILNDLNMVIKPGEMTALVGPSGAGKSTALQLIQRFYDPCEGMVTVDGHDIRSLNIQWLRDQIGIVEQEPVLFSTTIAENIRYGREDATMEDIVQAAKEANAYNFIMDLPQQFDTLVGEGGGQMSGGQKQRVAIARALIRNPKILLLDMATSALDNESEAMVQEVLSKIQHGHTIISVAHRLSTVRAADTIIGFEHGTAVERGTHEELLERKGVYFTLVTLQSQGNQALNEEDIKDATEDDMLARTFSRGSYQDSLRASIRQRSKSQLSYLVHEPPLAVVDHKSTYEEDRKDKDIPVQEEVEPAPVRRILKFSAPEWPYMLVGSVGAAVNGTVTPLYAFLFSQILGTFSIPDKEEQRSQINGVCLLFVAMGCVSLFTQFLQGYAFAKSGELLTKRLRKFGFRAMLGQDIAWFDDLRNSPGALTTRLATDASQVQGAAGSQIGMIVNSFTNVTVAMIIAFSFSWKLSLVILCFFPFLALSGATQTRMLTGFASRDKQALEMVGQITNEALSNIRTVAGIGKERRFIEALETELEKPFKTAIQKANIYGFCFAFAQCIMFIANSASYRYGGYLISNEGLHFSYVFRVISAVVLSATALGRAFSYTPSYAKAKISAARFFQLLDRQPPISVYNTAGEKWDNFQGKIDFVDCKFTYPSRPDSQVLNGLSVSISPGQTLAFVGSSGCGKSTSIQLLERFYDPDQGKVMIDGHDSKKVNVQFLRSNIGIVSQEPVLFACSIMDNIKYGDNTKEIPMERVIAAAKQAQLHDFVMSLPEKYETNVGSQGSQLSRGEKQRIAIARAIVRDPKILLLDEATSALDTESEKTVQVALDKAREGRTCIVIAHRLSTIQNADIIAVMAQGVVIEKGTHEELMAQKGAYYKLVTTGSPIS
UniProt O94911: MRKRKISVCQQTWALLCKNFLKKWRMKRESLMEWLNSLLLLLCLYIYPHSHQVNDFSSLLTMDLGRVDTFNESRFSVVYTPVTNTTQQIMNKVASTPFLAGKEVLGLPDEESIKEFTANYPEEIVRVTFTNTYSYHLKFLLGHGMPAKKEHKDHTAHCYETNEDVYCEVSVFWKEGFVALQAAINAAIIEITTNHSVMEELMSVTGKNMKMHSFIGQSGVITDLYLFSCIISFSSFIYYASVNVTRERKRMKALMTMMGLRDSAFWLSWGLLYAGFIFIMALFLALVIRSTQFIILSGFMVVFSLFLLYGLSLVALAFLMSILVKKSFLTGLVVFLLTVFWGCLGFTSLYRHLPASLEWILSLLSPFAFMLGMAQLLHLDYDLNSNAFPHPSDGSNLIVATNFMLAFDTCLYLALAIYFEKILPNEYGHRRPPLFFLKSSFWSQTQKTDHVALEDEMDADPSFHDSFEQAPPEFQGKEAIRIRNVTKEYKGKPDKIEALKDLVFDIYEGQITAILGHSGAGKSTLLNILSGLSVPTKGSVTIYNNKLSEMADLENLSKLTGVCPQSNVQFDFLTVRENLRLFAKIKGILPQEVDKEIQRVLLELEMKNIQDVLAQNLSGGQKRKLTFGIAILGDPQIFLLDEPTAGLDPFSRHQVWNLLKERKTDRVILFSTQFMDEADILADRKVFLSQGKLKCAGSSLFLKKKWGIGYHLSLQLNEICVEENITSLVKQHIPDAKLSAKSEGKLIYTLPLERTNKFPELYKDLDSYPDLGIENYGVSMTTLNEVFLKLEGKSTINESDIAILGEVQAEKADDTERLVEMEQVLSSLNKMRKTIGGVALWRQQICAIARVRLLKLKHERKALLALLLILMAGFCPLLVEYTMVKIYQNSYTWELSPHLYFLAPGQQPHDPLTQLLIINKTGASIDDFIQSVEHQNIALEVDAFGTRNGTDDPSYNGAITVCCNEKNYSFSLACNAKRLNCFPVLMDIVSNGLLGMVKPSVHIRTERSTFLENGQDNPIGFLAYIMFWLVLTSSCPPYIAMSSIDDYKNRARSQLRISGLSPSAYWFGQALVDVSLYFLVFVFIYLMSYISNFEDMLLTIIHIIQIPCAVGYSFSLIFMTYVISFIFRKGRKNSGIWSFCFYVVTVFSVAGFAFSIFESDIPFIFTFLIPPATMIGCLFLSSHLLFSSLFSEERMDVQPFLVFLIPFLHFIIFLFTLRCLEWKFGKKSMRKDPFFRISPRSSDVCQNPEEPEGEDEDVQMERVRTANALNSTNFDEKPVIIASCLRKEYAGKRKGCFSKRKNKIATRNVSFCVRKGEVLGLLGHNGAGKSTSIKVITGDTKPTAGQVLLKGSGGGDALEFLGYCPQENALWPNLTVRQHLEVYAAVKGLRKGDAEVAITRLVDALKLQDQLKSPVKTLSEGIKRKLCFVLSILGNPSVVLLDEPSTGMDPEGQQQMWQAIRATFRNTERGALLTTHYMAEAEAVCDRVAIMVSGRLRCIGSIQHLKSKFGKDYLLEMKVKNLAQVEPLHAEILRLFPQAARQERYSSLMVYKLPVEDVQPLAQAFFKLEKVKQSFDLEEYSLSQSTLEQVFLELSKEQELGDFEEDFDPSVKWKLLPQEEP

Experiments:
Assay in all cases: log2 fold change, soluble protein after heating vs DMSO (PISA); higher = thermal stabilisation; K562 cells, 10 uM, 30 min; active = over 0.2 and 3.5 SD of the protein, either way, in both replicates (recomputed)
sotrastaurin = compound: CN1CCN(c2nc(C3=C(c4c[nH]c5ccccc45)C(=O)NC3=O)c3ccccc3n2)CC1 [sotrastaurin]
How it was run: (§1)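 Quantification of soluble protein used TMTpro 16plex LC-MS/MS, with channel sums equalised. Samples were the supernatant after 21,000xg for 90 min of pooled aliquots from K562 cells (2×10^6 cells/mL) treated with 10 μM compound for 30 min, heated for 3 min over 48°C-58°C, and extracted in PBS with 0.5% NP-40 at 4°C. Values, from duplicates, describe thermal stability against control samples on a log2 fold-change scale.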

defactinib = compound: CNC(=O)c1ccc(Nc2ncc(C(F)(F)F)c(NCc3nccnc3N(C)S(C)(=O)=O)n2)cc1 [defactinib]
How it was run: as §1

rucaparib = compound: CNCc1ccc(-c2[nH]c3cc(F)cc4c3c2CCNC4=O)cc1 [rucaparib]
How it was run: as §1

encorafenib = compound: COC(=O)N[C@@H](C)CNc1nccc(-c2cn(C(C)C)nc2-c2cc(Cl)cc(NS(C)(=O)=O)c2F)n1 [encorafenib]
How it was run: as §1

[1] = compound: COC(=O)[C@H](CCSC)NC(=O)C1=C(C=C(C=C1)NC[C@H](CS)N)C2=CC=CC=C2
How it was run: as §1

filanesib = compound: CON(C)C(=O)N1N=C(c2cc(F)ccc2F)S[C@@]1(CCCN)c1ccccc1 [filanesib]
How it was run: as §1

idasanutlin = compound: COc1cc(C(=O)O)ccc1NC(=O)[C@@H]1N[C@@H](CC(C)(C)C)[C@](C#N)(c2ccc(Cl)cc2F)[C@H]1c1cccc(Cl)c1F [idasanutlin]
How it was run: as §1

alisertib = compound: COc1cc(Nc2ncc3c(n2)-c2ccc(Cl)cc2C(c2c(F)cccc2OC)=NC3)ccc1C(=O)O [alisertib]
How it was run: as §1

[2] = compound: COc1cc2nc(-c3cc(F)ccc3O)nc(N[C@@H]3CNC[C@H]3C(C)(C)O)c2cc1OC
How it was run: as §1

gefitinib = compound: COc1cc2ncnc(Nc3ccc(F)c(Cl)c3)c2cc1OCCCN1CCOCC1 [gefitinib]
How it was run: as §1

[3] = compound: COc1cccc2cc(-c3nc([C@H]4CC[C@H](C(=O)O)CC4)n4ncnc(N)c34)[nH]c12
How it was run: as §1

lapatinib = compound: CS(=O)(=O)CCNCc1ccc(-c2ccc3ncnc(Nc4ccc(OCc5cccc(F)c5)c(Cl)c4)c3c2)o1 [lapatinib]
How it was run: as §1

alvocidib = compound: CN1CC[C@H](c2c(O)cc(O)c3c(=O)cc(-c4ccccc4Cl)oc23)[C@H](O)C1 [alvocidib]
How it was run: as §1

Tubastatin A = compound: CN1CCc2c(c3ccccc3n2Cc2ccc(C(=O)NO)cc2)C1 [Tubastatin A]
How it was run: as §1

[4] = compound: COC1=CC=C(C=C1)CN2C=CC3=C2C=C(C=C3)C(=O)NO
How it was run: as §1

zotarolimus = compound: CO[C@H]1C[C@@H]2CC[C@@H](C)[C@@](O)(O2)C(=O)C(=O)N2CCCC[C@H]2C(=O)O[C@H]([C@H](C)C[C@@H]2CC[C@H](n3cnnn3)[C@H](OC)C2)CC(=O)[C@H](C)/C=C(\C)[C@@H](O)[C@@H](OC)C(=O)[C@H](C)C[C@H](C)/C=C/C=C/C=C/1C [zotarolimus]
How it was run: as §1

[5] = compound: CNC(=O)C1=CC=CC=C1NC2=NC(=NC=C2Cl)NC3=C(C=C(C=C3)N4CCOCC4)OC
How it was run: as §1

saracatinib = compound: CN1CCN(CCOc2cc(OC3CCOCC3)c3c(Nc4c(Cl)ccc5c4OCO5)ncnc3c2)CC1 [saracatinib]
How it was run: as §1

[6] = compound: CNc1nc(-c2ccc3c(N)n[nH]c3c2)cc(N2C[C@@H](C(=O)NC3CCCCC3)CC[C@H]2C)n1
How it was run: as §1

pictilisib = compound: CS(=O)(=O)N1CCN(Cc2cc3nc(-c4cccc5[nH]ncc45)nc(N4CCOCC4)c3s2)CC1 [pictilisib]
How it was run: as §1

Measured: log2 fold change

ACAA2 (UniProt K7ER88)
inactive: sotrastaurin -0.037 | defactinib -0.181 | rucaparib -0.201 | encorafenib 0.173 | [1] -0.105 | filanesib 0.01 | idasanutlin 0.081 | alisertib 0.057 | [2] -0.013 | gefitinib 0.061 | [3] -0.504 | lapatinib -0.057

ABCB1 (UniProt P08183)
inactive: alvocidib 0.026 | Tubastatin A 0.046 | rucaparib -0.128 | encorafenib -0.058 | [4] -0.083 | zotarolimus 0.035 | idasanutlin 0.006 | alisertib 0.554 | [2] 0.016 | [3] -0.055 | lapatinib -0.127

ACOT7 (UniProt K7EKP8)
inactive: idasanutlin 0.084

ABCD4 (UniProt O14678)
inactive: sotrastaurin 0.024 | alvocidib -0.002 | Tubastatin A -0.019 | [5] 0.057 | defactinib -0.036 | rucaparib 0.057 | encorafenib -0.038 | [1] -0.043 | [4] -0.007 | filanesib -0.111 | zotarolimus -0.069 | idasanutlin -0.188 | alisertib -0.151 | [2] -0.023 | gefitinib -0.016 | [3] 0.048 | lapatinib 0.091

ABCF1 (UniProt Q5STZ8)
inactive: alvocidib 0.112 | Tubastatin A -0.231 | defactinib -0.056 | [1] 0.071 | zotarolimus -0.058 | idasanutlin -0.146 | gefitinib 0.025

ACTRT1 (UniProt Q8TDG2)
inactive: saracatinib -0.045 | [5] -0.112 | defactinib 0.025 | [6] -0.055 | [1] 0.017 | idasanutlin 0.056 | [2] 0.323 | lapatinib -0.413 | pictilisib 0.127

A2ML1 (UniProt A8K2U0)
inactive: sotrastaurin 0.347 | Tubastatin A 0.069 | [5] 0.028 | defactinib 0.065 | rucaparib -0.212 | encorafenib -0.351 | [1] 0.075 | filanesib 0.502 | idasanutlin 0.513 | alisertib 0.486 | [2] 0.052 | gefitinib 0.059 | [3] -0.056 | lapatinib -0.416

2 neighbouring records from above, quoted:
ABCB1 (UniProt P08183)
inactive: alvocidib 0.026 | Tubastatin A 0.046 | rucaparib -0.128 | encorafenib -0.058 | [4] -0.083 | zotarolimus 0.035 | idasanutlin 0.006 | alisertib 0.554 | [2] 0.016 | [3] -0.055 | lapatinib -0.127

ACOT7 (UniProt K7EKP8)
inactive: idasanutlin 0.084

(further entries)

AARSD1 (UniProt Q9BTE6)
inactive: saracatinib 0.008 | [5] 0.08 | rucaparib 0.014 | [6] 0.165 | encorafenib -0.042 | [4] -0.659 | zotarolimus 0.055 | idasanutlin -0.071 | alisertib 0.08 | [2] 0.036 | gefitinib 0.157 | [3] -0.016 | lapatinib 0.069

ACSF2 isoform 2 (UniProt Q96CM8)
inactive: [5] 0.05 | pictilisib 0.238

ABRACL (UniProt Q9P1F3)
inactive: sotrastaurin -0.081 | [4] 0.209 | filanesib 0.052 | alisertib 0.245 | gefitinib -0.011 | [3] -0.017

ACYP2 (UniProt P14621)
inactive: sotrastaurin 0.126 | alvocidib 0.029 | Tubastatin A 0.14 | [5] 0.108 | defactinib 0 | rucaparib -0.112 | encorafenib -0.114 | [1] -0.226 | [4] -0.056 | filanesib -0.076 | zotarolimus -0.123 | alisertib 0.034 | [2] -0.15 | gefitinib 0.087 | [3] 0.189 | lapatinib 0.027

ABCD1 (UniProt P33897)
inactive: sotrastaurin 0.059 | alvocidib -0.042 | [5] -0.161 | [4] 0.199 | filanesib -0.009 | zotarolimus -0.01 | idasanutlin -0.446

ABL2 (UniProt P42684)
inactive: sotrastaurin 0.172 | Tubastatin A 0.189 | [4] 0.05 | filanesib 0.012

ABHD3 (UniProt Q8WU67)
inactive: [5] -0.191

ABCB11 (UniProt O95342)
inactive: sotrastaurin -0.08 | alvocidib -0.143 | Tubastatin A -0.001 | filanesib 0.062 | zotarolimus 0.207 | alisertib 0.001 | [2] 0.289 | [3] -0.109 | lapatinib -0.134

ABCA8 isoform 3 (UniProt O94911)
inactive: Tubastatin A 0.032 | [5] -0.038

ACTC1 (UniProt P68032)
inactive: [5] 0.27 | rucaparib 0.031 | encorafenib -0.253

ADAM8 (UniProt P78325)
inactive: [5] 0.102 | [4] -0.177
